Experimental data: PubChem BioAssay AID1259308 (NCATS, 2017)
Shown is an unselected part of about 59,000 reagents tested. Over the whole deposit, about 1,510 (2.6%) are marked active. 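Calls use total luciferase alone and ignore viability, so some active siRNAs may act by altering cell number.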 Reagents against one gene are numbered here. Not all columns of the deposit are shown. No sequences are given here.

Screen: 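Genes whose loss raises luciferase production in HEK293 cells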 (primary screen)
System: human HEK293 embryonic kidney cells stably expressing firefly luciferase (HEK-CMV-Luc2-Hygro)
Knock-down reagent: single siRNA against human genes, 0.8 pmol siRNA per well
Timing: 72 h
Measured: 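Reporter luminescence and viable-cell signal on separate replicate plates, given as percent of non-targeting control and median/MAD z-scores, plus per-cell luciferase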
Direction: total luciferase, z-score: higher = more reporter protein produced
Hit rule: 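Active when the median/MAD z-score for overall luciferase is greater than 3; a gene was taken forward for validation with new siRNAs if at least two of its three siRNAs passed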
Calls: active = raised luciferase; inactive = no rise

The first 5 entries as a preview:
| Gene | reagent | total luciferase, z-score | Call |
| --- | --- | --- | --- |
| RUSC1-AS1 | 1 | 0.336 | inactive |
| RUSC1-AS1 | 2 | 0.486 | inactive |
| RUSC1-AS1 | 3 | -2.03 | inactive |
| ACAD9 | 1 | 0.226 | inactive |
| ACAD9 | 2 | -0.104 | inactive |

Main list, from the start:
| Gene | reagent | total luciferase, z-score | Call |
| --- | --- | --- | --- |
| RUSC1-AS1 | 1 | 0.336 | inactive |
| RUSC1-AS1 | 2 | 0.486 | inactive |
| RUSC1-AS1 | 3 | -2.03 | inactive |
| ACAD9 | 1 | 0.226 | inactive |
| ACAD9 | 2 | -0.104 | inactive |
| ACAD9 | 3 | -2.55 | inactive |
| DHX32 | 1 | 1.59 | inactive |
| DHX32 | 2 | 0.377 | inactive |
| DHX32 | 3 | 0.367 | inactive |
| CDKN1A | 1 | -0.218 | inactive |
| CDKN1A | 2 | 0.943 | inactive |
| CDKN1A | 3 | -0.0967 | inactive |
| DOCK1 | 1 | -0.997 | inactive |
| DOCK1 | 2 | -0.0262 | inactive |
| DOCK1 | 3 | -0.552 | inactive |
| TMUB1 | 1 | -2.78 | inactive |
| TMUB1 | 2 | 0.968 | inactive |
| TMUB1 | 3 | -2.65 | inactive |
| SMARCA4 | 1 | 1.58 | inactive |
| SMARCA4 | 2 | -0.177 | inactive |
| SMARCA4 | 3 | -0.174 | inactive |
| ZSCAN4 | 1 | -0.97 | inactive |
| ZSCAN4 | 2 | 0.363 | inactive |
| ZSCAN4 | 3 | 3.54 | active |
| ZNF408 | 1 | -0.342 | inactive |
| ZNF408 | 2 | 0.329 | inactive |
| ZNF408 | 3 | 0.415 | inactive |
| LSMEM1 | 1 | -1.06 | inactive |
| LSMEM1 | 2 | -0.0578 | inactive |
| LSMEM1 | 3 | -1.22 | inactive |
| RORC | 1 | 0.805 | inactive |
| RORC | 2 | 0.745 | inactive |
| RORC | 3 | 1.82 | inactive |
| HESX1 | 1 | 0.4 | inactive |
| HESX1 | 2 | 0.196 | inactive |
| HESX1 | 3 | -1.49 | inactive |
| CLDN11 | 1 | 0.104 | inactive |
| CLDN11 | 2 | 0.415 | inactive |
| CLDN11 | 3 | 0.248 | inactive |
| C4orf17 | 1 | 0.894 | inactive |
| C4orf17 | 2 | 0.196 | inactive |
| C4orf17 | 3 | 1.21 | inactive |
| SLBP | 1 | -0.245 | inactive |
| SLBP | 2 | 1.14 | inactive |
| SLBP | 3 | -0.56 | inactive |
| TMEM187 | 1 | 0.268 | inactive |
| TMEM187 | 2 | 0.531 | inactive |
| TMEM187 | 3 | -0.719 | inactive |
| NHS | 1 | 1.24 | inactive |
| NHS | 2 | 0.194 | inactive |
| NHS | 3 | -0.517 | inactive |
| RASGRP4 | 1 | -0.0715 | inactive |
| RASGRP4 | 2 | 0.674 | inactive |
| RASGRP4 | 3 | -0.762 | inactive |
| SERBP1 | 1 | -0.794 | inactive |
| SERBP1 | 2 | -1.15 | inactive |
| SERBP1 | 3 | -0.502 | inactive |
